Results on four molecules are retold here after paper PMC9965136, “Molecular Cloning and Characteristics of a Lectin from the Bivalve Glycymeris yessoensis” (Marine Drugs, 2023).

In this data set the test system is T1, GYL.
T1 construct: native lectin from hemolymph, biotin-labelled; signal peptide removed; N-terminus SGEXEAGW and EXEAGW (Edman); 161-residue precursor; 18,118 Da N-glycosylated subunit; disulfide-linked dimer of 36,053 Da; peptides CFSYVDWMSAEEPNDRF, LPFFFLCEKPTETC, WNDLSCSK
As to the kind of experiment: glycan microarray, biotinylated lectin, FITC-streptavidin. The data set is classed as binding, Glycymeris yessoensis. The note with it: GYL 50 µg/mL; glycan immobilised on chip through spacer.
For the molecule `CC(=O)N[C@H]1[C@H](OCCCN)O[C@H](CO)[C@@H](O[C@@H]2O[C@H](CO)[C@H](OS(=O)(=O)O)[C@H](O)[C@H]2O)[C@@H]1O` [compound 159, 4-O-Su-Galβ1-4GlcNAcβ-sp3], the “Average RFU” value amounted to 5774 RFU. `CC(=O)N[C@H]1[C@H](OCCN)O[C@H](CO)[C@@H](O[C@@H]2O[C@H](COS(=O)(=O)O)[C@H](OS(=O)(=O)O)[C@H](O)[C@H]2O)[C@@H]1O` [compound 183, 4,6-O-Su2-Galβ1-4GlcNAcβ-sp2]: the “Average RFU” value is 3338 RFU. `CC(=O)N[C@H]1[C@H](OCCCN)O[C@H](CO)[C@@H](O[C@@H]2O[C@H](CO)[C@H](O)[C@H](O[C@H]3O[C@H](CO)[C@H](O)[C@H](O)[C@H]3NC(C)=O)[C@H]2O[C@@H]2O[C@@H](C)[C@@H](O)[C@@H](O)[C@@H]2O)[C@@H]1O` [compound 368, GalNAcα1-3(Fucα1-2)Galβ1-4GlcNAcβ-sp3]: the “Average RFU” value stood at 2080 RFU. Take `CC(=O)N[C@H]1[C@@H](O[C@H]2[C@@H](O)[C@@H](CO)O[C@@H](O[C@H]3[C@H](O[C@@H]4O[C@@H](C)[C@@H](O)[C@@H](O)[C@@H]4O)[C@@H](NC(C)=O)[C@H](OCCCN)O[C@@H]3CO)[C@@H]2O)O[C@H](CO)[C@H](O)[C@@H]1O` [compound 404, GalNAcα1-3Galβ1-4(Fucα1-3)GlcNAcβ-sp3]: the “Average RFU” value worked out at 9114 RFU.
